Test results as given in article PMC7397857.
Results are given in words; binding and its absence hold for the method and conditions named. In cells and extracts the contact can be indirect. Here binding means that the protein was enriched with, or labelled near, the bait; the list need not be complete.

Protein sequences, listed by entry. Tags and fused reporters are not part of them.
UniProt A2RRP1: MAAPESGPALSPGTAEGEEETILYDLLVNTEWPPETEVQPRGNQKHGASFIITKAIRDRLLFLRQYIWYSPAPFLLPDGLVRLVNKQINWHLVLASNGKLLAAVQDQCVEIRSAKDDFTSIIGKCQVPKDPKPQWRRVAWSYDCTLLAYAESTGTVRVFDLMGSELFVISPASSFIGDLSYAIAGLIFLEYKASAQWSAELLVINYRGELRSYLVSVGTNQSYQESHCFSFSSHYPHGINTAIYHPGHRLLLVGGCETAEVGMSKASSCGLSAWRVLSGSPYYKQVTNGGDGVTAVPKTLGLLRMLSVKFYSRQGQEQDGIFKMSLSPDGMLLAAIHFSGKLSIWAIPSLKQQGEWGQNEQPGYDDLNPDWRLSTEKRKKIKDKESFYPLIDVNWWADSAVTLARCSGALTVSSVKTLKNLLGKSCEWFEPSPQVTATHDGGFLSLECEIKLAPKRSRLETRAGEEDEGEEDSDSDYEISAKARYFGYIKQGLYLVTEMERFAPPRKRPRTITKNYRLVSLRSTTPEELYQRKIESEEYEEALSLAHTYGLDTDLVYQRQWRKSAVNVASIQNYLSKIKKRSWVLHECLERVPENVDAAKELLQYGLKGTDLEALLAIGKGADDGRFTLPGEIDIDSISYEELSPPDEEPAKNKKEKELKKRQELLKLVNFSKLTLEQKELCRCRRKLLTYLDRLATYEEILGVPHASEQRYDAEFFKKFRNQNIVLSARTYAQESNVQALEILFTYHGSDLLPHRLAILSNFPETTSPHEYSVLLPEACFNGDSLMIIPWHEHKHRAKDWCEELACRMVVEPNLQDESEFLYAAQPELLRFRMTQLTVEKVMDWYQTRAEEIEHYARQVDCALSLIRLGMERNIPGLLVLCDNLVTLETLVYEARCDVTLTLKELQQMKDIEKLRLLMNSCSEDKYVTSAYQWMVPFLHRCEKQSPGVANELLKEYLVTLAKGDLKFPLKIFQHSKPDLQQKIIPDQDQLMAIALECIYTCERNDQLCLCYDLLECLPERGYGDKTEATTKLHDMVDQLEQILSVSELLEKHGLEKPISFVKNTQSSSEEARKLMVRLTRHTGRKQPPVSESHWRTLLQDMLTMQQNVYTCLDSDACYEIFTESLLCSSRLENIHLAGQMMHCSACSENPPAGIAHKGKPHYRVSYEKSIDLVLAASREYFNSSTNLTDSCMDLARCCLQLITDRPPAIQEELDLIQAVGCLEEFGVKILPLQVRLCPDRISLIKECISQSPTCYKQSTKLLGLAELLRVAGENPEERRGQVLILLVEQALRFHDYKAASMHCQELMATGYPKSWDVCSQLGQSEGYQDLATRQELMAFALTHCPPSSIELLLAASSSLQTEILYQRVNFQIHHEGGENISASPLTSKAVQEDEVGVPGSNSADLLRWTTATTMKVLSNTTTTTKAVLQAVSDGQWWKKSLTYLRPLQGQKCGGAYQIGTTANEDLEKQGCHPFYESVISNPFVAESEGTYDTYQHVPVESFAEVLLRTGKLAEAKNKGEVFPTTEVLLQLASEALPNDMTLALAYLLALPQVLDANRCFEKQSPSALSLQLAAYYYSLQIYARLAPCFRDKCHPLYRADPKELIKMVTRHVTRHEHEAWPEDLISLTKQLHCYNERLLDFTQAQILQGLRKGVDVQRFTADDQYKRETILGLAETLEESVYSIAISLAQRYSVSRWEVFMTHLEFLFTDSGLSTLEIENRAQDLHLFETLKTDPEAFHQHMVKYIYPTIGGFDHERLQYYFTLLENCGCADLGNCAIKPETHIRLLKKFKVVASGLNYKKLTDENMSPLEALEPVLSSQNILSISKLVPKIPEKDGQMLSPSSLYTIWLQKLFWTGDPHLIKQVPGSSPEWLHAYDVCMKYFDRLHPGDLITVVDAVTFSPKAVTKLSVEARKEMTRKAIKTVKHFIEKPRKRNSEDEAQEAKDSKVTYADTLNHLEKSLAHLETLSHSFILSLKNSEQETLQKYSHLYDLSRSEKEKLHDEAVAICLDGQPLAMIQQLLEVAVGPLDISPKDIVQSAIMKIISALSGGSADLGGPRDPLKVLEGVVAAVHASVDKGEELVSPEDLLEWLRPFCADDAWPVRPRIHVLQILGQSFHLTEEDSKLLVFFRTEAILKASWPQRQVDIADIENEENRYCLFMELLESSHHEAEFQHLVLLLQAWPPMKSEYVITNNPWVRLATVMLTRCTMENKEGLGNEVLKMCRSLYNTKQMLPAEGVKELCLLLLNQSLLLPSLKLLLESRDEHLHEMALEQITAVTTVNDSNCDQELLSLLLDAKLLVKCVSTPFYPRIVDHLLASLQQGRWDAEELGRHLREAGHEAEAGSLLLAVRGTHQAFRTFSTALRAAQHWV
UniProt P61619: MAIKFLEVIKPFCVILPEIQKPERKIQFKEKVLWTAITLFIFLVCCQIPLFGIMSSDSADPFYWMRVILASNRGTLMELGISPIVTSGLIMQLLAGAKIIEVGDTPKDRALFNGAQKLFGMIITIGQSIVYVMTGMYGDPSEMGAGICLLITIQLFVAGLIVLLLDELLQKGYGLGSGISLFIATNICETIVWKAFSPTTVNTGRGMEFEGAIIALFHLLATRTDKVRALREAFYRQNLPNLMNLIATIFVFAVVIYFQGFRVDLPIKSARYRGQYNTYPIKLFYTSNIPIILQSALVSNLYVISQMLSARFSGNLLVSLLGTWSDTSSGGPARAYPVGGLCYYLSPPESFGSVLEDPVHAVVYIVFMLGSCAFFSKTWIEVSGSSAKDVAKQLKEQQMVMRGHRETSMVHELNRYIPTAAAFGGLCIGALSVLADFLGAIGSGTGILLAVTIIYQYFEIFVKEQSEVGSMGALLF

Target: endogenous NBAS tagged with an eGFP/3xFlag tag at its N terminus (human) (UniProt A2RRP1)
Assay: affinity purification with mass spectrometry; anti-GFP immunoprecipitation of endogenously eGFP/3xFlag-tagged NBAS, interacting proteins found by mass spectrometry; independent of the presence of RNA

SEC61A1 (from UniProt P61619 1-476)
binding: binds
